# PubChem BioAssay AID1259259 | Sanger Institute | 2017
# Purpose: 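Synthetic lethal kinase partners of anchor drugs in colorectal cancer cells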 (primary screen)
# System: SW1463 human colorectal cancer cells
# Knock-down reagent: siRNA pool against human genes
# Conditions: DMSO vehicle, or one anchor drug: BYL719 at 1 µM, cetuximab at 5 µg/ml, or trametinib at 10 nM
# Detection: 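Viability as fraction of control pool 2 (non-targeting), replicate mean; knock-down robust z-score without any drug; synergy score averaged for each anchor drug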
# Direction: robust z-score, knock-down alone: higher = more viable cells after knock-down; viability, knock-down alone: higher = more viable cells; synergy score with BYL719 and synergy score with cetuximab: higher = stronger synergy (synthetic lethal) with drug
# Active means: 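a robust z-score under -3 for knock-down with no drug marks the gene as essential, meaning viability loss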
# Calls: active = essential: viability loss from knock-down alone; inactive = no change from knock-down alone
# The whole screen tested 794 reagents; shown is a part drawn at random. 9 of all reagents (1.1%) were called active. 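Calls rest on knock-down alone, not drug synergy; viability values seem capped at 1.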 Not all columns of the deposit are shown. Not given: the amount of reagent, the time to read-out.
Gene,"robust z-score, knock-down alone","viability, knock-down alone (fraction of control)",synergy score with BYL719,synergy score with cetuximab,Outcome
ACVR2B (activin A receptor type 2B),-2.39,0.774,-0.183,-0.213,inactive
PIK3C3 (phosphatidylinositol 3-kinase catalytic subunit type 3),0.845,0.982,0.0562,0.148,inactive
HUNK (hormonally up-regulated Neu-associated kinase),-1.53,0.829,0.0106,0.135,inactive
KMT2B (lysine methyltransferase 2B),-1.11,0.856,-0.0519,-0.0655,inactive
DMPK (DM1 protein kinase),0.0331,0.93,-0.0148,-0.00664,inactive
CDK11A (cyclin dependent kinase 11A),-0.328,0.907,-0.0305,0.114,inactive
MAPK10 (mitogen-activated protein kinase 10),0.404,0.954,-0.00118,0.0471,inactive
RIPK1 (receptor interacting serine/threonine kinase 1),-1.09,0.858,-0.142,-0.00367,inactive
RPS6KB1 (ribosomal protein S6 kinase B1),0.0497,0.931,-0.0665,-0.0358,inactive
PTK6 (protein tyrosine kinase 6),0.411,0.954,-0.046,0.0163,inactive
CILK1 (ciliogenesis associated kinase 1),-0.188,0.916,-0.00361,-0.0535,inactive
CDK14 (cyclin dependent kinase 14),-1.03,0.861,-0.139,-0.162,inactive
ACVRL1 (activin A receptor like type 1),1.13,1,0,-0.0272,inactive
MSR1 (macrophage scavenger receptor 1),-0.232,0.913,-0.0873,0.137,inactive
"LYN (LYN proto-oncogene, Src family tyrosine kinase)",-0.219,0.914,-0.0252,-0.0342,inactive
KHK (ketohexokinase),1.13,1,0,0.138,inactive
STK36 (serine/threonine kinase 36),0.489,0.959,-0.00407,0.0816,inactive
IP6K1 (inositol hexakisphosphate kinase 1),0.799,0.979,0.112,0.127,inactive
NTRK1 (neurotrophic receptor tyrosine kinase 1),0.0588,0.931,-0.0353,0.218,inactive
STKLD1 (serine/threonine kinase like domain containing 1),-1.19,0.851,0.0446,0.119,inactive
MAPKAPK5 (MAPK activated protein kinase 5),0.45,0.957,-0.0134,0.0314,inactive
IP6K2 (inositol hexakisphosphate kinase 2),0.112,0.935,-0.0638,0.0641,inactive
TTBK1 (tau tubulin kinase 1),0.145,0.937,-0.0372,-0.0885,inactive
ROCK2 (Rho associated coiled-coil containing protein kinase 2),-0.606,0.889,0.0224,0.101,inactive
DGKI (diacylglycerol kinase iota),0.266,0.945,-0.0552,0.0177,inactive
CDC7 (cell division cycle 7),-0.0643,0.924,0.232,0.271,inactive
CIB2 (calcium and integrin binding family member 2),0.41,0.954,0.187,0.217,inactive
MED12 (mediator complex subunit 12),0.613,0.967,-0.033,0.0194,inactive
PAK4 (p21 (RAC1) activated kinase 4),0.388,0.953,-0.0474,0.0336,inactive
"KIT (KIT proto-oncogene, receptor tyrosine kinase)",0.897,0.985,-0.0147,-0.0416,inactive
MAP2K3 (mitogen-activated protein kinase kinase 3),0.19,0.94,-0.0267,0.174,inactive
UCK1 (uridine-cytidine kinase 1),0.48,0.959,0.124,0.109,inactive
FCSK (fucose kinase),1.13,1,0.0327,0.0877,inactive
ACVR1B (activin A receptor type 1B),0.535,0.962,-0.036,0.114,inactive

Copied from above for reference:
Gene,"robust z-score, knock-down alone","viability, knock-down alone (fraction of control)",synergy score with BYL719,synergy score with cetuximab,Outcome
MSR1 (macrophage scavenger receptor 1),-0.232,0.913,-0.0873,0.137,inactive
"LYN (LYN proto-oncogene, Src family tyrosine kinase)",-0.219,0.914,-0.0252,-0.0342,inactive
KHK (ketohexokinase),1.13,1,0,0.138,inactive
STK36 (serine/threonine kinase 36),0.489,0.959,-0.00407,0.0816,inactive
